Publication PMC5122325
These are yes or no findings as the source states them, for the method shown. Binding seen in cells or lysates may run through a third protein. Some results given as binding are weak or reduced against the parent protein; the word gives no strength.

Sequences of proteins named here, by UniProt entry; tags and fusion partners are left off.
UniProt Q8TDD2: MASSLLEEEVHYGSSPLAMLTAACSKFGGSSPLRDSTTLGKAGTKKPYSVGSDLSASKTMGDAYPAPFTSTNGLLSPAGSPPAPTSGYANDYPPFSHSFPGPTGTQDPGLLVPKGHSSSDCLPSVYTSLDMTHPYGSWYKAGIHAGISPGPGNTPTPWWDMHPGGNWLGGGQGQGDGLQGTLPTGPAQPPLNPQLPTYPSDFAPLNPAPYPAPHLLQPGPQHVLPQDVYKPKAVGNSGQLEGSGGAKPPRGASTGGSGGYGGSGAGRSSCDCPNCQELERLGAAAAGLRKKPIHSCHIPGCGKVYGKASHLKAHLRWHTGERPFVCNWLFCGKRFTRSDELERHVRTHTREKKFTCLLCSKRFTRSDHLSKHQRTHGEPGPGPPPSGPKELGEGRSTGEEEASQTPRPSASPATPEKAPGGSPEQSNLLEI
UniProt P56524: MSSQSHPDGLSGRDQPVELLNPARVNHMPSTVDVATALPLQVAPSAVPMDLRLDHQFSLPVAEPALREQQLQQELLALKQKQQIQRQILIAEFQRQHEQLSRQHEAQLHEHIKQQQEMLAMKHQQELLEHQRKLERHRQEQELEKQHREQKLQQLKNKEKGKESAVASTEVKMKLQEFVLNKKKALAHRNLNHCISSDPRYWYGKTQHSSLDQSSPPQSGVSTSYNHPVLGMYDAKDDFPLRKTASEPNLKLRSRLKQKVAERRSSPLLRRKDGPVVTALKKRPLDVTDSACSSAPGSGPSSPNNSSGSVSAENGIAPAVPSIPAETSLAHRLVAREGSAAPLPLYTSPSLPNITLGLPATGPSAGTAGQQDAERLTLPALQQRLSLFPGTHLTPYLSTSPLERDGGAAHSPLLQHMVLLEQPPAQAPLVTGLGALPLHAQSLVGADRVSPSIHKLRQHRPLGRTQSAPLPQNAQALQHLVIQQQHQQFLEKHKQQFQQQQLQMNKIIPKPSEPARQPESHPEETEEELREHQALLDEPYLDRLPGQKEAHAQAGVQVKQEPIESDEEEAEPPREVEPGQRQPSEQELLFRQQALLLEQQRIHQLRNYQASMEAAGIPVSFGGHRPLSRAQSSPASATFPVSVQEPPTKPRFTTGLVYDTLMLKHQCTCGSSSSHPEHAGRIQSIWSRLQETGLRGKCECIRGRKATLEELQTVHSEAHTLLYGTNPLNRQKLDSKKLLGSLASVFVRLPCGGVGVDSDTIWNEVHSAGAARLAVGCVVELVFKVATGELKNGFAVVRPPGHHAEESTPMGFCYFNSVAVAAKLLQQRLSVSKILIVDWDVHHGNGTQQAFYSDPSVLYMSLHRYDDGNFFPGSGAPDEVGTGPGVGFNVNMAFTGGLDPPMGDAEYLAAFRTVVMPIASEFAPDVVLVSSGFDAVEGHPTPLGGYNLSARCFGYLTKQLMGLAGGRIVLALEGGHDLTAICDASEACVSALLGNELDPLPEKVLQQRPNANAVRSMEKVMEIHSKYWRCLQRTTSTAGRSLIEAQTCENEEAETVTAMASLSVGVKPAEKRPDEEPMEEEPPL
UniProt P45481: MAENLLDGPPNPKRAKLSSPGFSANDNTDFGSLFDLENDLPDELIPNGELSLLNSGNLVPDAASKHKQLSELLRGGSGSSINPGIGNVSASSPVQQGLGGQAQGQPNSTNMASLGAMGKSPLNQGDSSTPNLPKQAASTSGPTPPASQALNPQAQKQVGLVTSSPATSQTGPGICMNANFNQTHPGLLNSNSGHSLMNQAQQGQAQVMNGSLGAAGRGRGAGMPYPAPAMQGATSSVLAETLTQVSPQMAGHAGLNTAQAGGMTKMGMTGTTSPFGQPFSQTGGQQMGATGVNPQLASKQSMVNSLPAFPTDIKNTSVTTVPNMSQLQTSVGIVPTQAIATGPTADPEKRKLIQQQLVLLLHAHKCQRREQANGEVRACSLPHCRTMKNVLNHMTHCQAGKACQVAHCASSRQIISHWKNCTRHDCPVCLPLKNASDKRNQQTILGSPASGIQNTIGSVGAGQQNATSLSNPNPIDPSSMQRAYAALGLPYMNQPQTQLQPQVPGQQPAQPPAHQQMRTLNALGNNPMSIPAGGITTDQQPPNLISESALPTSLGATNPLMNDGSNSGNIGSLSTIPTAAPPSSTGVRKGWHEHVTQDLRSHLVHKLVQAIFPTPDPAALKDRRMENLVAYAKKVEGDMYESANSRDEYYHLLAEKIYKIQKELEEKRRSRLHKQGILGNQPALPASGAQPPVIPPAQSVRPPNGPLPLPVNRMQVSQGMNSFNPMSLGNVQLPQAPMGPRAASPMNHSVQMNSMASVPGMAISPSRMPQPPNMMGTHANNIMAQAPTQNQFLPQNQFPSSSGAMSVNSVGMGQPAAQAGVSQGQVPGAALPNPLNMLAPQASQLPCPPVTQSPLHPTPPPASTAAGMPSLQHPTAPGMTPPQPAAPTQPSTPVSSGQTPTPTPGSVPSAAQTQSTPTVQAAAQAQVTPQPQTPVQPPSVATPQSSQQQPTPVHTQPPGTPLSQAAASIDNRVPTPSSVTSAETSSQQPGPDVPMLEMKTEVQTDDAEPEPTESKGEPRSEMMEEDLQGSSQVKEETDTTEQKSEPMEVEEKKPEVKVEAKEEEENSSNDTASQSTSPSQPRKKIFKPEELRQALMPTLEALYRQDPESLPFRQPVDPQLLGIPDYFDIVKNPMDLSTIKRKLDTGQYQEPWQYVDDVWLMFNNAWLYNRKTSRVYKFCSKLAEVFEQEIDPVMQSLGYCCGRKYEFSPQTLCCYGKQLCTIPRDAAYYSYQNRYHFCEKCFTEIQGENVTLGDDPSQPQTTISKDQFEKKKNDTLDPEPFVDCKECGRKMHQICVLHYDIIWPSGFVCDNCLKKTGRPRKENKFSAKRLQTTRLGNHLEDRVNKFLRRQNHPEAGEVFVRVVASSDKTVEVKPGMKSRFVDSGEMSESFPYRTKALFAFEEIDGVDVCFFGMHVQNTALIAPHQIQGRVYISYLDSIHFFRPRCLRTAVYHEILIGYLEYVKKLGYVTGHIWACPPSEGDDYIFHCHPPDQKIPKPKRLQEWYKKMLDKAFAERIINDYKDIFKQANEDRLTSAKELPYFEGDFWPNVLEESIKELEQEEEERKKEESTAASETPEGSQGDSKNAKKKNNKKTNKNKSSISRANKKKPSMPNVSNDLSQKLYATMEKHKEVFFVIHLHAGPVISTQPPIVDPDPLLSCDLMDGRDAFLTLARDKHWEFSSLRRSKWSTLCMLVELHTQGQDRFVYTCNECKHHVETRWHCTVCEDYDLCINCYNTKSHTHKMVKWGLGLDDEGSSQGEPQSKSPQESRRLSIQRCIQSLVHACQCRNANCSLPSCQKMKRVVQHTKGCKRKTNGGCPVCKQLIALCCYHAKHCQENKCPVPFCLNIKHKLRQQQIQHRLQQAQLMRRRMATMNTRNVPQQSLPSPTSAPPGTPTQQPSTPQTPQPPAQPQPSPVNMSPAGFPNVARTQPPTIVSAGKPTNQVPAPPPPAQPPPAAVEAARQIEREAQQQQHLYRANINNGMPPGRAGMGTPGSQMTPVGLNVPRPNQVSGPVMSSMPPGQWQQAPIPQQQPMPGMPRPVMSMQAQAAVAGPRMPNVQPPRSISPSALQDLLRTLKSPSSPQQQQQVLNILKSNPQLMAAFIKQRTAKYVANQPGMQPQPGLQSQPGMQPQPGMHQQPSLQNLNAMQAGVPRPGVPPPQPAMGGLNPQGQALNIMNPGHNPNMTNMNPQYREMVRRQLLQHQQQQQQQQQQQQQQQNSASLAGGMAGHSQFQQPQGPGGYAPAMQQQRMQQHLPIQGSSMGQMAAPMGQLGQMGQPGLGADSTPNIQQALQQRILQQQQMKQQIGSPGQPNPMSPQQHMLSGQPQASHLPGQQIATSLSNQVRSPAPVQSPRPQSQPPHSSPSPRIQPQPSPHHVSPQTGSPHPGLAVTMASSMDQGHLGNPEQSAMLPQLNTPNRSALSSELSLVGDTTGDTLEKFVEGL

Tests used:
Experiment in all cases: co-IP; HEK 293T cells co-transfected, lysed 48 h later in RIPA buffer (50 mM Tris-HCl pH 7.5, 150 mM NaCl, 1% NP-40, 0.5% sodium deoxycholate, 0.1% SDS); lysates with anti-Flag, anti-Osx or anti-HA antibody at 4°C overnight, protein-G agarose beads, three washes in RIPA; blots with anti-HA or anti-Flag
HA-Osx = HA-Osx (UniProt Q8TDD2)
Flag-HDAC4 = Flag-HDAC4 (UniProt P56524)
[1] = target: Flag-CBP-HA (CREB binding protein) (UniProt P45481)

Substance | binding (HA-Osx) | binding (Flag-HDAC4) | binding [1]
Flag-CBP-HA (CREB binding protein) (from UniProt P45481 1-2441) (enzyme) | binds |  | 
HA-Osx-GFP (Osterix fused to GFP) (from UniProt Q8TDD2 1-431) |  | binds | binds
